Values of other authors in patent US20040197416A1, “Nanocapsules containing a steroid for cosmetic compositions” (priority 2001, published 2004).
For at least one compound, name, drawing or mass did not settle the structure.

Conditions: cited from earlier work

In the case of `C[C@]12CC[C@H](O)CC1=C[C@@H](O)[C@@H]1[C@@H]2CC[C@]2(C)C(=O)CC[C@@H]12` [7α-hydroxy DHEA], the free-radical-scavenging effects is listed as “has free-radical-scavenging effects”.
